Source: PubChem BioAssay AID743456 (Peter MacCallum Cancer Centre, 2014)
Shown is a random part of 878 reagents. 27 of them (3.1%) count as active. 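27 mimics are marked active, unlike an earlier stated count of 24; the viability threshold is described inconsistently.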 No sequences are given here. Not given: the amount of reagent.

Aim: 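miRNA mimics altering how resistant colon cancer cells respond to vorinostat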 (primary screen)
Cells: human HCT116-VR colon cancer cells, a vorinostat-resistant HCT116 line
Reagent: miRNA mimic
Timing: about 3 days from transfection to readout; drug present for the last 24 h
Challenge: vorinostat at 2.5 µM final for 24 h
Measurement: 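Per-well live-cell protease fluorescence and caspase luminescence under 2.5 µM vorinostat for 24 h, scored as robust z-scores and against mock transfection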
Direction: viability robust z-score and viability vs mock transfection: higher = more viable cells; caspase robust z-score: higher = more caspase activity, more apoptosis
Rule for the call: 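Active when viability drops or caspase activity climbs beyond robust z thresholds, with wells of poor cell health excluded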

miRNA,viability robust z-score,caspase robust z-score,viability hit class,caspase hit class,viability vs mock transfection,activity call
hsa-miR-629,-0.67,2.16,no change,no change,0.7,inactive
hsa-miR-185*,-1.57,2.8,no change,no change,0.52,inactive
hsa-miR-1297,0.55,-0.92,no change,no change,0.88,inactive
hsa-let-7a*,0.8,0.01,no change,no change,0.92,inactive
hsa-miR-96*,-0.45,0.22,no change,no change,0.72,inactive
hsa-miR-548a-5p,0.38,-0.58,no change,no change,0.82,inactive
hsa-miR-330-5p,-1.86,2.14,no change,no change,0.42,inactive
hsa-miR-21*,0.84,-0.22,no change,no change,0.9,inactive
hsa-miR-376a,-0.82,-0.82,no change,no change,0.66,inactive
hsa-miR-22,-0.07,0.65,no change,no change,0.74,inactive
hsa-miR-1265,-0.15,1.44,no change,no change,0.72,inactive
hsa-miR-140-5p,0.37,-0.98,no change,no change,0.82,inactive
hsa-miR-645,0.18,-0.5,no change,no change,0.82,inactive
hsa-miR-380*,-1.38,3.12,no change,no change,0.56,inactive
hsa-miR-1231,-2.36,5.04,no change,caspase activation,0.4,active
hsa-miR-614,0.57,-0.74,no change,no change,0.85,inactive
hsa-miR-505,-0.34,0.48,no change,no change,0.74,inactive
hsa-miR-564,-0.96,-0.7,no change,no change,0.64,inactive
hsa-miR-1255b,-0.84,4.21,no change,no change,0.65,inactive
hsa-let-7i,0.12,0.94,no change,no change,0.82,inactive
hsa-miR-142-5p,0.8,-0.57,no change,no change,0.92,inactive
hsa-miR-1288,-0.83,2.65,no change,no change,0.68,inactive
hsa-miR-198,0.74,-0.5,no change,no change,0.91,inactive
hsa-miR-484,-0.11,-0.2,no change,no change,0.73,inactive
hsa-miR-297,-1.28,-0.32,no change,no change,0.52,inactive
hsa-miR-155*,1.07,-0.46,no change,no change,0.97,inactive
hsa-miR-320c,0.74,1.12,no change,no change,0.91,inactive
hsa-miR-338-5p,0.28,-0.5,no change,no change,0.84,inactive
hsa-miR-20b,0.7,0.24,no change,no change,0.9,inactive
hsa-miR-1469,0.1,-0.57,no change,no change,0.81,inactive

Continued, starting with the last 6 of the part before.
miRNA,viability robust z-score,caspase robust z-score,viability hit class,caspase hit class,viability vs mock transfection,activity call
hsa-miR-297,-1.28,-0.32,no change,no change,0.52,inactive
hsa-miR-155*,1.07,-0.46,no change,no change,0.97,inactive
hsa-miR-320c,0.74,1.12,no change,no change,0.91,inactive
hsa-miR-338-5p,0.28,-0.5,no change,no change,0.84,inactive
hsa-miR-20b,0.7,0.24,no change,no change,0.9,inactive
hsa-miR-1469,0.1,-0.57,no change,no change,0.81,inactive
hsa-miR-105*,0.01,1.29,no change,no change,0.76,inactive
hsa-miR-191*,1.52,-0.1,no change,no change,1.02,inactive
hsa-miR-24-2*,-0.06,1.85,no change,no change,0.78,inactive
hsa-miR-508-5p,-0.38,-0.2,no change,no change,0.68,inactive
hsa-miR-1245,0.64,1.14,no change,no change,0.86,inactive
hsa-miR-192,-2.28,1.05,no change,no change,0.4,inactive
hsa-miR-1296,-1.2,1.6,no change,no change,0.6,inactive
hsa-miR-548i,0.7,-0.6,no change,no change,0.87,inactive
hsa-miR-483-3p,-0.01,0.06,no change,no change,0.75,inactive
hsa-miR-200c*,-0.38,1.82,no change,no change,0.72,inactive
hsa-miR-199b-5p,1.54,-0.38,no change,no change,1.02,inactive
hsa-miR-523,0.7,0.4,no change,no change,0.88,inactive
hsa-miR-146b-5p,-0.08,-0.96,no change,no change,0.78,inactive
hsa-miR-135a*,-0.18,2.7,no change,no change,0.76,inactive
hsa-miR-548n,0.89,-0.2,no change,no change,0.94,inactive
hsa-miR-1264,0.93,0.74,no change,no change,0.94,inactive
hsa-miR-658,0.82,-0.14,no change,no change,0.93,inactive
hsa-miR-656,0.59,-0.78,no change,no change,0.86,inactive
hsa-miR-7,-1.28,-0.45,no change,no change,0.6,inactive
hsa-miR-644,-3.2,1.43,reduced viability,no change,0.18,active
